Experimental data: the supplement of paper PMC10849652
The other results are listed elsewhere or left out.

The chains behind the UniProt entries cited, without tags or fusion partners. Where a name states a change or a piece, a line headed by the entry shows the natural chain unless it says otherwise.
UniProt Q86UU1: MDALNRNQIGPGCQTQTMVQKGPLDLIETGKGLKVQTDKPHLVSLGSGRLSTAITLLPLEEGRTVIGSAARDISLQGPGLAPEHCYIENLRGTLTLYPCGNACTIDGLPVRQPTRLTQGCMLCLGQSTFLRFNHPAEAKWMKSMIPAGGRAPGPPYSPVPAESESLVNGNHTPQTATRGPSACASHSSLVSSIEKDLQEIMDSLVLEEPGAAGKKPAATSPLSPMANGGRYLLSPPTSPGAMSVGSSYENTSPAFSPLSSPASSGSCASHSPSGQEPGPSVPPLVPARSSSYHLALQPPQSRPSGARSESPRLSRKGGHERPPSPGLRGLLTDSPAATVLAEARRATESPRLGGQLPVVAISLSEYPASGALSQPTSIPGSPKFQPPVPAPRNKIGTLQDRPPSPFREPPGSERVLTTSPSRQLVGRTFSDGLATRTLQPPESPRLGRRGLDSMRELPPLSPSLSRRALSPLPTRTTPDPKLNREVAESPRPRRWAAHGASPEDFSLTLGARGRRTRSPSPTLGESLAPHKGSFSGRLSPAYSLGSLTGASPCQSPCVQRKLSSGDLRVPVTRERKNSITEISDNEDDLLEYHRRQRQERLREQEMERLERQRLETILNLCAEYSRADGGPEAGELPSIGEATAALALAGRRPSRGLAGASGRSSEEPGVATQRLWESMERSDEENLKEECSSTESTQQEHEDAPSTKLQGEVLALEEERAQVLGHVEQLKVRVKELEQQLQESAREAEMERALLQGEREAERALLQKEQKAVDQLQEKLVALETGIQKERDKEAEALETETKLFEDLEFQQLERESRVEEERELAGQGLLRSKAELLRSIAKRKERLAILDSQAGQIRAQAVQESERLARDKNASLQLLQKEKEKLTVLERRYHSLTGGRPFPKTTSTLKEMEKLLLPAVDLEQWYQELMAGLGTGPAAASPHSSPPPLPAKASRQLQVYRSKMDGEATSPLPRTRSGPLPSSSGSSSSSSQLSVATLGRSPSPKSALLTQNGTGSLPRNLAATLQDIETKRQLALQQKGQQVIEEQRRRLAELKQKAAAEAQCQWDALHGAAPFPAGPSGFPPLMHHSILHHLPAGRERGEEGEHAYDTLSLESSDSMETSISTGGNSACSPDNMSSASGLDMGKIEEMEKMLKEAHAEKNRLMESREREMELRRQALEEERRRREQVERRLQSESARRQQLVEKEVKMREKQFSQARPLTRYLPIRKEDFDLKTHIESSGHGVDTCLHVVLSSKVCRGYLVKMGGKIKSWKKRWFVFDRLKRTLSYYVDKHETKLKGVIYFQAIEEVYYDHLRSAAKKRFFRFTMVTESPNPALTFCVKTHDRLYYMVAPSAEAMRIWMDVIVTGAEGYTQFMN
UniProt O95336: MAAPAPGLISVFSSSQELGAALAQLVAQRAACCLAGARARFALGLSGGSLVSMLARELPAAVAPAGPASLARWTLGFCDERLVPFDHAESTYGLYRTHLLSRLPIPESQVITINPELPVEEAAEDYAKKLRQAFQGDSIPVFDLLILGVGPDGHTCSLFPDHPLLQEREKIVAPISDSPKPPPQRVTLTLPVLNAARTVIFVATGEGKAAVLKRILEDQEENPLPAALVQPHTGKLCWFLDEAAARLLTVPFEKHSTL
UniProt Q8IZ21: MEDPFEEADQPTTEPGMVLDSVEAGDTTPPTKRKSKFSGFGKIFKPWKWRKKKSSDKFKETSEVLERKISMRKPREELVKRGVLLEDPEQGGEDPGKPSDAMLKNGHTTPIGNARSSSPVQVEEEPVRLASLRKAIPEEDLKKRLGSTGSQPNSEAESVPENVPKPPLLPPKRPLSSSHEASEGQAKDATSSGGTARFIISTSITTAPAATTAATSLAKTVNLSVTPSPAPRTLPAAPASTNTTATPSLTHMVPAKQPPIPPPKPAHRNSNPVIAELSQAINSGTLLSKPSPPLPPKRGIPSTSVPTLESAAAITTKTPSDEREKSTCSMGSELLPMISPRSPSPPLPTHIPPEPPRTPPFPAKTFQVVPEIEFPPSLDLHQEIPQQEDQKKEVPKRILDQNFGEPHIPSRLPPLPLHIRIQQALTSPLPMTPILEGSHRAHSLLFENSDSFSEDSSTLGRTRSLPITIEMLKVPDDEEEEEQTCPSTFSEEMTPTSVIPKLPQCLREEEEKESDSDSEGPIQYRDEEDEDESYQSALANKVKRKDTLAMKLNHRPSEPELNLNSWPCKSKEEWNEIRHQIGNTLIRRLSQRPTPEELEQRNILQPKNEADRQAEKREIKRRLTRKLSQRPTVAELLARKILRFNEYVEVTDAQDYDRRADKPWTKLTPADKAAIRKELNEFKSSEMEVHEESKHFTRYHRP
UniProt Q99570, whole entry, looked up: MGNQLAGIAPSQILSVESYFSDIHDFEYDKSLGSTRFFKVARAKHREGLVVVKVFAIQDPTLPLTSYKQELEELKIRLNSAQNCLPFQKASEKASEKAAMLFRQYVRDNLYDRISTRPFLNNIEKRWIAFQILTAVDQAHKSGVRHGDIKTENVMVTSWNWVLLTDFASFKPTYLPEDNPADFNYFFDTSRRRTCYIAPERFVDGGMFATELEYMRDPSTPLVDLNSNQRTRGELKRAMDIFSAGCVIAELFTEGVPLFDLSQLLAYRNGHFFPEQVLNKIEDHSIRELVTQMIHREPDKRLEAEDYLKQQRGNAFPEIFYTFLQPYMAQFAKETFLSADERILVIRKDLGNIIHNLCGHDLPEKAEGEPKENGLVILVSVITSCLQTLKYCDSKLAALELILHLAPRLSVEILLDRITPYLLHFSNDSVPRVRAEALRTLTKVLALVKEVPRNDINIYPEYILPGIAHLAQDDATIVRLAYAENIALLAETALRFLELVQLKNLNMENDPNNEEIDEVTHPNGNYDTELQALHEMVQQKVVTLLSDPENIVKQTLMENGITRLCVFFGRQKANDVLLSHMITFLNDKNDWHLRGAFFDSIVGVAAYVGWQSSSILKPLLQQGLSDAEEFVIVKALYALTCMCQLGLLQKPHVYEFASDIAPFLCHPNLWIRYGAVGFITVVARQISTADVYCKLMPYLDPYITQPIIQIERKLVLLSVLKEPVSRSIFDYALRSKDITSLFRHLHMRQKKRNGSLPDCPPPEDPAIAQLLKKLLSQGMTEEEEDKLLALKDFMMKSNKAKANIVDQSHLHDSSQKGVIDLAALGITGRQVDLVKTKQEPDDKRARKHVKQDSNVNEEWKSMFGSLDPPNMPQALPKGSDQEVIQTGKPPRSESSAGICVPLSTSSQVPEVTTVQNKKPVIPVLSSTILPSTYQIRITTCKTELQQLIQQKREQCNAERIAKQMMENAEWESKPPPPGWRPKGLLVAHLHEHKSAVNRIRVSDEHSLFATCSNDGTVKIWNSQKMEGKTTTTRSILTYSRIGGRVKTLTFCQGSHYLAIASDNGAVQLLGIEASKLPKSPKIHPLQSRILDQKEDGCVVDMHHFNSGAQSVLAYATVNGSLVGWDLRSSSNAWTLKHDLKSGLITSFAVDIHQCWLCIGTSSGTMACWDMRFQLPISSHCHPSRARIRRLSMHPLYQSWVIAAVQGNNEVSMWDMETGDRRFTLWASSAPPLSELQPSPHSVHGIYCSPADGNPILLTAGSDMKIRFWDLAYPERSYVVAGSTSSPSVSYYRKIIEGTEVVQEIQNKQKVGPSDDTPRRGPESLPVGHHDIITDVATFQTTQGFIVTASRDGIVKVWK
UniProt Q99623, whole entry, looked up: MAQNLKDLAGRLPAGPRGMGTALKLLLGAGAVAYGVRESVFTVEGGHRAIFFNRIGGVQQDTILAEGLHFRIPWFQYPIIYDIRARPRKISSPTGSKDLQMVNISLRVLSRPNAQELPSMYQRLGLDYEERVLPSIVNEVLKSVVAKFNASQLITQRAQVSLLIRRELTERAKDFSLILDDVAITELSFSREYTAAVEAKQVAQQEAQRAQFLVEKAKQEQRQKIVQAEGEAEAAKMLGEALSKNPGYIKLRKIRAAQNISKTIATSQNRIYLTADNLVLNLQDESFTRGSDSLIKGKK
UniProt Q8N4L2: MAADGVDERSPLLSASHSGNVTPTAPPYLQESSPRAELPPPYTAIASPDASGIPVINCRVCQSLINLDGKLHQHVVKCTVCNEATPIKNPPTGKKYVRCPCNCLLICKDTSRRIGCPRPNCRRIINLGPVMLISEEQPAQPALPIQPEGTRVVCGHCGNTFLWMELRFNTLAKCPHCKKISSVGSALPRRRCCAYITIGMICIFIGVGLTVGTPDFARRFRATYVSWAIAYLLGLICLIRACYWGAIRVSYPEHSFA
UniProt Q96BD5: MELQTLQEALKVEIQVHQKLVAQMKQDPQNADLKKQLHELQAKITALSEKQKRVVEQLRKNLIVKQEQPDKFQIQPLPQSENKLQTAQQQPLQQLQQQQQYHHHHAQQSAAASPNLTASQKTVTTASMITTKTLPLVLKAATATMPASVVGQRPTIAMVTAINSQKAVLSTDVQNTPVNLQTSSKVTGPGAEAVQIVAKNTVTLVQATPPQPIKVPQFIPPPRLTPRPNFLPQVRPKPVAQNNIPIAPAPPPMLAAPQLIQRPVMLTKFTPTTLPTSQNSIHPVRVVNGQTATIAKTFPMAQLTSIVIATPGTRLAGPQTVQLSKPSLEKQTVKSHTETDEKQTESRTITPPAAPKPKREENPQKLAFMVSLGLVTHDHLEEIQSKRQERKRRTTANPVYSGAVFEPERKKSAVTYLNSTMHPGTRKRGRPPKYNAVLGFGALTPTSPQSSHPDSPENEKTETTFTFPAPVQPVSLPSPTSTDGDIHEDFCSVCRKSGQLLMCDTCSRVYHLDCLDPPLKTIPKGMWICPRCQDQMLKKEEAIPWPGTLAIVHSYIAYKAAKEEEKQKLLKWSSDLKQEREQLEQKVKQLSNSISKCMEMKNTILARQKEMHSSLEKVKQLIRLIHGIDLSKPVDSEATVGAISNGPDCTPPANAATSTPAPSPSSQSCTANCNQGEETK
UniProt P46019: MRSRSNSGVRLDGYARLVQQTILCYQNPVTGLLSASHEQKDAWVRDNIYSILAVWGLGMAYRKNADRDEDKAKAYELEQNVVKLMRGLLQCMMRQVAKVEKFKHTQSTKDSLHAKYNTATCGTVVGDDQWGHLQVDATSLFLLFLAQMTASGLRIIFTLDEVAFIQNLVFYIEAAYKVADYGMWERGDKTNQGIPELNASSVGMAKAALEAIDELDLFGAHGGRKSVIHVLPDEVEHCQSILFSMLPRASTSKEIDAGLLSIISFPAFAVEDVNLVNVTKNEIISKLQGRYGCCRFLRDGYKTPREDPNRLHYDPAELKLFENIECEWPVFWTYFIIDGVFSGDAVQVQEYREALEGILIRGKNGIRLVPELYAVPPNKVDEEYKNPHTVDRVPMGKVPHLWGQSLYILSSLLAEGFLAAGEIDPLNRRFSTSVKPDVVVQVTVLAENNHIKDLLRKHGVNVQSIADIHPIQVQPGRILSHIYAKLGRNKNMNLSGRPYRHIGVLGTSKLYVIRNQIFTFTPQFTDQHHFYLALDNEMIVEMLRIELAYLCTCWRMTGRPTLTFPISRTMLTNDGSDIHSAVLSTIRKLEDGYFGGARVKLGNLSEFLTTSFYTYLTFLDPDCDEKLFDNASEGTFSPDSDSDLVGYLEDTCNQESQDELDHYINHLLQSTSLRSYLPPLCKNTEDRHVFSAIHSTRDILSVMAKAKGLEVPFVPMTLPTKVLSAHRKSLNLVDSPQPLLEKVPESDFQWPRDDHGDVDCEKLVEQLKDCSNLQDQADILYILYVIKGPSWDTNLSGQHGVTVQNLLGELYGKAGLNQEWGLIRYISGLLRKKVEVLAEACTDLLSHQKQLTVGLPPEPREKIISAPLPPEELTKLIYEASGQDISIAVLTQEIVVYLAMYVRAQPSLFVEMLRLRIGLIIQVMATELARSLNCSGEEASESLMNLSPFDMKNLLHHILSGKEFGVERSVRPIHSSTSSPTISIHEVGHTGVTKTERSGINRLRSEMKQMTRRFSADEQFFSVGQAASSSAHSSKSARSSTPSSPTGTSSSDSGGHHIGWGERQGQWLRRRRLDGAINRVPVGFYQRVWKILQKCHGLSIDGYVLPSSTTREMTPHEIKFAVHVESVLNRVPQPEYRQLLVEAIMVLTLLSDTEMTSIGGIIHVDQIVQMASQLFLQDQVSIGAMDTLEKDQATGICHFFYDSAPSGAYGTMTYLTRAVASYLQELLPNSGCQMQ

Key:
Experiment in all cases: log2 fold change, soluble protein after heating vs DMSO (PISA); higher = thermal stabilisation; K562 lysate, 10 uM; active = over 0.2 and 3.5 SD of the protein, either way, in both replicates (recomputed)
ibrutinib = compound: C=CC(=O)N1CCC[C@@H](n2nc(-c3ccc(Oc4ccccc4)cc3)c3c(N)ncnc32)C1 [ibrutinib]
Outline: (§1)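 The values are log-two fold changes in thermal stability compared with solvent controls and come from duplicates. They were obtained by TMTpro 16plex LC-MS/MS, with channel sums equalised, on the supernatant after 21,000xg for 90 min. That supernatant came from crude K562 extract at 1 mg/mL protein treated with 10 μM compound for 30 min, heated for 3 min across 48°C-58°C, pooled and brought to 0.5% NP-40 at 4°C.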

[1] = compound: CC(=O)c1cnc2ccc(-c3cc(Cl)c(O)c(Cl)c3)nc2c1N[C@H]1CC[C@H](CN(C)C)CC1
Outline: as §1

ralimetinib = compound: CC(C)(C)Cn1c(N)nc2ccc(-c3[nH]c(C(C)(C)C)nc3-c3ccc(F)cc3)nc21 [ralimetinib]
Outline: as §1

[2] = compound: CC(C)(O)CC(=O)NCCn1ccc2ncnc(Nc3ccc(Oc4cccc(C(F)(F)F)c4)c(Cl)c3)c21
Outline: as §1

[3] = compound: CC(C)C1=C2N=C(C=C(N2N=C1)NCC3=CC=CC=C3)NCCCCCCN
Outline: as §1

[4] = compound: CC1=C(C(CC(=O)N1)C2=CC=C(C=C2)C(F)(F)F)C(=O)NC3=C(C=C4C(=C3)C=NN4)F
Outline: as §1

[5] = compound: CC1=C(C2=C(C=C1)C(=O)C3=CC=CC=C3N2CCCN)C
Outline: as §1

[6] = compound: CC1=C(C=C(C=C1)NC(=O)C2=CC(=CC=C2)C(C)(C)C#N)NC3=CC4=C(C=C3)N=CN(C4=O)C
Outline: as §1

[7] = compound: CC1=C(C=C(C=C1)NC(=O)C2=CC(=CC=C2)N(C)C)NC(=O)C3=CC=C(C=C3)O
Outline: as §1

[8] = compound: CC1=CC=C(C=C1)SC2=C3C=C(SC3=CN=C2)C(=O)N
Outline: as §1

vemurafenib = compound: CCCS(=O)(=O)Nc1ccc(F)c(C(=O)c2c[nH]c3ncc(-c4ccc(Cl)cc4)cc23)c1F [vemurafenib]
Outline: as §1

[9] = compound: CCCS(=O)(=O)Nc1ccc(F)c(C(=O)c2c[nH]c3ncc(Cl)cc23)c1F
Outline: as §1

barasertib = compound: CCN(CCCOc1ccc2c(Nc3cc(CC(=O)Nc4cccc(F)c4)[nH]n3)ncnc2c1)CCOP(=O)(O)O [barasertib]
Outline: as §1

[10] = compound: CC[C@@H]1C(=O)N(C)c2cnc(Nc3ccc(C(=O)NC4CCN(C)CC4)cc3OC)nc2N1C1CCCC1
Outline: as §1

volasertib = compound: CC[C@@H]1C(=O)N(C)c2cnc(Nc3ccc(C(=O)N[C@H]4CC[C@H](N5CCN(CC6CC6)CC5)CC4)cc3OC)nc2N1C(C)C [volasertib]
Outline: as §1

[11] = compound: CCn1c(C(=O)N(C2CC2)C2CC2)cc2c3c(ncn3C)c(Nc3cc(C)n(C)n3)nc21
Outline: as §1

[12] = compound: CCn1cc(-c2ccnc3[nH]c(-c4cccc(CN(C)C)c4)cc23)c(-c2ccc(NC(=O)N(C)C)cc2)n1
Outline: as §1

[13] = compound: CN1CCC(CNc2ccc3ncc(-c4cccc(OC(F)(F)F)c4)n3n2)CC1
Outline: as §1

saracatinib = compound: CN1CCN(CCOc2cc(OC3CCOCC3)c3c(Nc4c(Cl)ccc5c4OCO5)ncnc3c2)CC1 [saracatinib]
Outline: as §1

sotrastaurin = compound: CN1CCN(c2nc(C3=C(c4c[nH]c5ccccc45)C(=O)NC3=O)c3ccccc3n2)CC1 [sotrastaurin]
Outline: as §1

Measured: log2 fold change

PHLDB1 (UniProt Q86UU1)
inactive: ibrutinib 0.05 | [1] 0.049 | ralimetinib -0.094 | [2] 0.096 | [3] -0.021 | [4] 0.004 | [5] -0.009 | [6] 0.114 | [7] -0.001 | [8] 0.156 | vemurafenib -0.071 | [9] 0.162 | barasertib 0.01 | [10] 0.033 | volasertib -0.044 | [11] 0.001 | [12] 0.095 | [13] -0.014 | saracatinib 0.005 | sotrastaurin -0.049

PGLS (UniProt O95336)
inactive: ibrutinib 0.012 | [1] -0.08 | ralimetinib 0.06 | [2] 0.008 | [3] 0.001 | [4] -0.012 | [5] -0.075 | [6] 0.038 | [7] -0.003 | [8] 0.077 | vemurafenib -0.033 | [9] -0.027 | barasertib 0.067 | [10] -0.055 | volasertib 0.027 | [11] 0.036 | [12] 0.051 | [13] -0.114 | saracatinib 0.039 | sotrastaurin 0.006

PHACTR4 isoform 2 (UniProt Q8IZ21)
inactive: ibrutinib -0.009 | [1] -0.005 | ralimetinib -0.009 | [2] -0.047 | [3] -0.019 | [4] 0.025 | [5] -0.028 | [6] 0.021 | [7] -0.016 | [8] -0.01 | vemurafenib 0.011 | [9] 0.011 | barasertib -0.008 | [10] 0.065 | volasertib 0.023 | [11] -0.003 | [13] -0.178 | saracatinib 0 | sotrastaurin 0.013
active: [12] 0.836

PIK3R4 (UniProt Q99570)
inactive: ibrutinib -0.036 | [1] 0.009 | ralimetinib 0.011 | [2] -0.03 | [3] -0.048 | [4] 0 | [5] -0.014 | [6] 0.012 | [7] -0.008 | [8] 0.011 | vemurafenib 0.008 | [9] 0.019 | barasertib 0.006 | [10] 0.031 | volasertib -0.066 | [11] -0.018 | [12] -0.052 | [13] 0.026 | saracatinib 0.015 | sotrastaurin 0.019

PHB2 (UniProt Q99623)
inactive: ibrutinib -0.008 | [1] 0.005 | ralimetinib -0.015 | [2] -0.009 | [3] -0.006 | [4] 0.004 | [5] 0.002 | [6] -0.006 | [7] -0.008 | [8] 0.003 | vemurafenib 0.002 | [9] -0.004 | barasertib -0.015 | [10] -0.002 | volasertib 0.041 | [11] -0.002 | [12] -0.065 | [13] 0.013 | saracatinib -0.012 | sotrastaurin -0.013

PIP4P2 (UniProt Q8N4L2)
inactive: ibrutinib 0.034 | [1] 0.138 | ralimetinib -0.025 | [2] -0.023 | [3] -0.08 | [4] -0.015 | [5] -0.061 | [6] 0.013 | [7] 0.008 | [8] -0.096 | vemurafenib 0.038 | [9] 0.031 | barasertib 0.311 | [10] 0.039 | volasertib 0.01 | [11] -0.016 | [12] 0.022 | [13] 0.03 | saracatinib 0.038 | sotrastaurin -0.16

PHF21A isoform 3 (UniProt Q96BD5)
inactive: ibrutinib -0.058 | [1] 0.183 | ralimetinib -0.092 | [2] -0.013 | [3] -0.01 | [4] -0.021 | [5] -0.057 | [6] -0.043 | [7] -0.139 | [8] -0.154 | vemurafenib 0.07 | [9] -0.113 | barasertib 0.042 | [10] -0.02 | volasertib -0.099 | [11] 0.034 | [12] -0.18 | [13] 0.115 | saracatinib -0.02 | sotrastaurin -0.005

PHKA2 (UniProt P46019)
inactive: ibrutinib -0.032 | [1] 0.095 | ralimetinib -0.022 | [2] -0.097 | [3] -0.016 | [4] -0.03 | [5] -0.076 | [6] 0.007 | [7] 0.013 | [8] -0.015 | vemurafenib -0.065 | [9] 0.053 | barasertib 0.072 | [10] 0.059 | volasertib 0.021 | [11] 0.024 | [12] 0.009 | [13] -0.084 | saracatinib 0.002 | sotrastaurin -0.058
